Data as given in patent publication US6380170.

Chains of the proteins cited; added tags and fusions are not shown. A change or cut given only in a name is not applied to a line headed by its entry. Chains listed by the source or under a name are the forms on record and can include a tag or linker.
DP-1/E2F-1 (Homo sapiens), one chain, as listed by the source, chain 2 of 2: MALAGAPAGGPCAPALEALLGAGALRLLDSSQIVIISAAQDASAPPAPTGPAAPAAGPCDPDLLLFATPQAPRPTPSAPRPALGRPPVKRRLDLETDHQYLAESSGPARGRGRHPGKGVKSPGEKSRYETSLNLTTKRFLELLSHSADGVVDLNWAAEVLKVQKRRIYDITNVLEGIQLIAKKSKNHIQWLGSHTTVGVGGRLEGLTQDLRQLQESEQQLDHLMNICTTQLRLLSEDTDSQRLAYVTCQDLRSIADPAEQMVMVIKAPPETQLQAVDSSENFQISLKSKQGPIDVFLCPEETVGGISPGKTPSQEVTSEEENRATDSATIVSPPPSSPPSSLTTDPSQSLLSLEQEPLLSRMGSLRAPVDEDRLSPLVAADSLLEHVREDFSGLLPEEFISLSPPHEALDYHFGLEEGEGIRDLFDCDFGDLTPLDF
DP-1/E2F-3 (Homo sapiens), one chain, as listed by the source, chain 2 of 2: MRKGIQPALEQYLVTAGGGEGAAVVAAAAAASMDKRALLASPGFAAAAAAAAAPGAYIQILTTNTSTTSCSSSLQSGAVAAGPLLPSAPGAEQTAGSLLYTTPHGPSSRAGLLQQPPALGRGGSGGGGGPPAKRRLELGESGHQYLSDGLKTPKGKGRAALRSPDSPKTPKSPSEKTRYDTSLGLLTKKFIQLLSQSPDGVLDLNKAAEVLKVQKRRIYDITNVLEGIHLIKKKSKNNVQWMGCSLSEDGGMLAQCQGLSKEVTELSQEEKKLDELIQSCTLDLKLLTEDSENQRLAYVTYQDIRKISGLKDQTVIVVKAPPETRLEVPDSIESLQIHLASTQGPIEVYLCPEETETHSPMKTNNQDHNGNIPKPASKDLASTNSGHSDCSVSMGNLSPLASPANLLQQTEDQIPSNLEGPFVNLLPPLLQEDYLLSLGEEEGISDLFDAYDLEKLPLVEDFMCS
DP-1/E2F-4 (Homo sapiens), one chain, as listed by the source, chain 2 of 2: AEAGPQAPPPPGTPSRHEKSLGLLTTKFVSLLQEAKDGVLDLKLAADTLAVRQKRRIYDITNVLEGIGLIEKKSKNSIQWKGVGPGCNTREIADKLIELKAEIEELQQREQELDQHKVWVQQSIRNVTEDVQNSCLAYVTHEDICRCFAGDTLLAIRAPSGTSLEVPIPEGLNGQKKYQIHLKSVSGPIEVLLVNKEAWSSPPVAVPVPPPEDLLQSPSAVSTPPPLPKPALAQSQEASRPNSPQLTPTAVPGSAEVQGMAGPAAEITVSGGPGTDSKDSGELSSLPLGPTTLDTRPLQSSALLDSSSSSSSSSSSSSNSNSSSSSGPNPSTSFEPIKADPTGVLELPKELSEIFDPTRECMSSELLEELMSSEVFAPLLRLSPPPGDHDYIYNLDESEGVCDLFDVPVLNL
DP-1/E2F-1 (Homo sapiens), one chain, as listed by the source, chain 1 of 2: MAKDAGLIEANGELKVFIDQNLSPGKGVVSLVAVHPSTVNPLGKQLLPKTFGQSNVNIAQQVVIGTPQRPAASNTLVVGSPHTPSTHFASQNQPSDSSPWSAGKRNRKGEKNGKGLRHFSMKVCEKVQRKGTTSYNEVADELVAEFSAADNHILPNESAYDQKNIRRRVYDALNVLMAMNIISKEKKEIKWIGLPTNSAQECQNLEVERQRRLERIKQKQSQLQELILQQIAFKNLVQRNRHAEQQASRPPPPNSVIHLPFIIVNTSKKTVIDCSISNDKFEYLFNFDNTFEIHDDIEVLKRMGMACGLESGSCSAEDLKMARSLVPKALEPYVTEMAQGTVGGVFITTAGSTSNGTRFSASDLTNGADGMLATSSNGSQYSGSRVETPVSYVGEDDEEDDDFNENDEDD

Experiments:
[1] = tested on: CDF-1 (CDE-CHR binding factor) (Homo sapiens); assay: competition with a labelled probe; settings: protein in an extract, variant of cdc25C-wt CDE-CHR
[2] = tested on: CDF-1 (CDE-CHR binding factor) (Homo sapiens); assay: EMSA; settings: protein in an extract
[3] = tested on: CDF-1 (CDE-CHR binding factor) (Homo sapiens); assay: footprint; settings: in vitro DMS; four G in CDE and two A in CHR protected; protein in an extract
[4] = tested on: DP-1/E2F-1 (Homo sapiens); assay: EMSA; settings: protein in an extract, protein details: HeLa nuclear extract
[5] = tested on: DP-1/E2F-3 (Homo sapiens); assay: EMSA; settings: protein in an extract, protein details: HeLa nuclear extract
[6] = tested on: DP-1/E2F-4 (Homo sapiens); assay: EMSA; settings: protein in an extract, protein details: HeLa nuclear extract
[7] = high efficiency, variant of cdc25C-wt CDE-CHR
[8] = region 4 change does not affect E2F, variant of B-myb E2FBS-CHR

Sequence: ACTGGGCTGGCGGAAGGTTTGAAGGTTCAA (double strand) [cdc25C-1/+2]
- binding result ([1]; EMSA competition as wild type): binds

Sequence: ACTGGGCTGGCGGAAGGTTTGAATGGTCAA (double strand) [cdc25C-wt CDE-CHR]
- binding result ([2]; HeLa nuclear extract): binds
- binding result [3]: binds

Sequence: GCTTGGCGGGAGGTTTGAAT (double strand) [C-B1,2]
- binding result ([2]; unaffected versus cdc25C wild type, variant of cdc25C-wt CDE-CHR): binds
- binding result [4, 7]: binds
- binding result [5, 7]: binds
- binding result [6, 7]: binds

Sequence: ACTTGGCGGGAGATTTGAAT (double strand) [B-C4]
- binding result ([2]; strong increase versus wild-type B-myb, variant of B-myb E2FBS-CHR): binds
- binding result [4, 8]: binds
- binding result [5, 8]: binds
- binding result [6, 8]: binds

Sequence: ACTGGGCTGGCGGAAGGTTTGACTGGTCAA (double strand) [cdc25C-2]
- binding result ([1]; diminished EMSA competition): binds more weakly

Sequence: ACTGGGCTGGCGGACTTGTTGAATGGTCAA (double strand) [cdc25C-10/-7]
- binding result ([1]; diminished EMSA competition, text prints -10/-1): binds more weakly

Sequence: ACTGGGCTGGCGGAAGGTGGTCATGGTCAA (double strand) [cdc25C-6/-3 (mCHR)]
- binding result ([1]; diminished EMSA competition): binds more weakly

At least one result comes from cells or an extract, where the contact may be indirect. For some assays here: The exact form of at least one protein or probe is not confirmed. For some assays here: The comparison behind a weaker result is the experiment's own reference, which may not be listed here.
